Test results from article PMC12843137, “Fine-Tuning Side Chain Substitutions: Impacts on the Lipophilicity–Solubility–Permeability Interplay in Macrocyclic Peptides” (Marine Drugs, 2025).

Experiment: Caco-2 cell permeability study
Assay type: in vitro ADME
Conditions: human, pH 7.4, Caco-2, 5 μM
Excerpt: One of the physicochemical quantities that mirrors the interaction of a compound with the cell membrane is permeability. Traditionally, measuring permeability with the PAMPA model provides estimates of passive permeability across a model membrane. […] Therefore, we measure the cell permeability of the six compounds using Caco-2 cells, so that the apical to basolateral (A to B) and basolateral to apical (B to A) permeabilities, and thereby the efflux ratio, can be determined. Three commercial drugs (Table 2) are used as standard compounds to establish and validate our in-house assay.
For Caco-2 cells (originally obtained from the American Type Culture Collection; ATCC, Manassas, VA, USA), 50 μL and […] of cell culture medium are added to each well of the Transwell insert and reservoir, respectively. And then the HTS transwell plates are incubated at 37 °C, 5% CO2 for 1 h before cell seeding. Caco-2 cells are diluted to 6.86 × 10^5 cells/mL with culture medium and 50 μL of cell suspension is dispensed into the filter well of the 96-well HTS Transwell plate. Cells are cultivated for 14–18 days in a cell culture incubator at 37 °C, 5% CO2, 95% relative humidity. […]
dilution factor is changed according to the log D value and the LC-MS signal response. The samples are evaluated by LC-MS/MS analysis. […]

- Papp A→B at 2 h, 5 µM (apical to basolateral): 0.52 ×10⁻⁶ cm/s
- Papp B→A at 2 h, 5 µM (basolateral to apical): 0.67 ×10⁻⁶ cm/s
Structure (SMILES): CC(C)NCC(O)COc1ccc(CC(N)=O)cc1 (centres unmarked) [Atenolol, reference compound]
